# Some of the results follow.
# B1: Layilin (Mus musculus), Q8C351 (protein)
# chain: MQPGAALQAMLLAVLLAKPRDSKGRLLSASDLDPRGGQLVCRGGTRRPCYKVIYFHDAFQRLNFEEAKETCMEDGGQLVSIETEDEQRLIEKFIENLLASDGDFWIGLKRLEEKQSNNTACQDLYAWTDGSTSQFRNWYVDEPSCGSEVCVVMYHQPSAPPGIGGSYMFQWNDDRCNMKNNFICKYHDDKPSTTPSIWPGGEATEPATPLLPEETQKEDTKETFKERREAALNLAYILIPSIPLFLLLVVTSAVCWVWICRRKREQTDPSTKEQHTIWPTPRQENSPNLDVYNVIRKQSEADLAEPRPDLKNISFRVCSGEAMPDDMSCDYENIAVNPSESGFVTLASMESGFVTNDIYEFSPDRMGRSKESGWVENEIYY
# Columns and labels:
# Assay in all cases: glycan array binding signal (z-score within array); higher = stronger binding
# Conditions in all cases: glycan notation: IUPAC condensed, linker removed
# [1] = target: Gal6S(b1-4)Glc6S
# Outline: (§1)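 The binding signal is a Z-score computed within each array and averaged over linkers. Arrays of the same protein sequence at different concentrations or buffers were also averaged together. Data originate from 3228 arrays in the Consortium for Functional Glycomics database, kept only where the protein sequence was available.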
# [2] = target: Gal6S(b1-4)GlcNAc
# Outline: as §1
# [3] = target: Gal6S(b1-4)GlcNAc6S
# Outline: as §1
# [4] = target: GalNAc(a1-3)Gal
# Outline: as §1
# [5] = target: GalNAc(a1-3)GalNAc
# Outline: as §1
# [6] = target: GalNAc(a1-3)GalNAc(a1-3)Gal(a1-4)Gal(b1-4)GlcNAc
# Outline: as §1
# [7] = target: GalNAc(a1-3)GalNAc(b1-3)Gal(a1-4)Gal(b1-4)Glc
# Outline: as §1
# [8] = target: GalNAc(b1-3)Gal
# Outline: as §1
# [9] = target: GalNAc(b1-3)Gal(a1-4)Gal(b1-4)GlcNAc
# Outline: as §1
# [10] = target: GalNAc(b1-3)Gal(a1-4)Gal(b1-4)GlcNAc(b1-3)Gal(b1-4)Glc
# Outline: as §1
# [11] = target: GalNAc(b1-3)Gal(a1-6)Gal(b1-4)Glc
# Outline: as §1
# [12] = target: GalNAc(b1-3)GalNAc
# Outline: as §1
# [13] = target: GalNAc(b1-4)Gal(b1-4)Glc
# Outline: as §1
# [14] = target: GalNAc(b1-4)GlcNAc
# Outline: as §1
# [15] = target: GalNAc(b1-4)GlcNAc(b1-2)Man(a1-3)[GalNAc(b1-4)GlcNAc(b1-2)Man(a1-6)]Man(b1-4)GlcNAc(b1-4)GlcNAc
# Outline: as §1
# [16] = target: GalNAc(b1-6)GalNAc
# Outline: as §1
# [17] = target: Glc(a1-4)Glc
# Outline: as §1
# [18] = target: Glc(a1-4)Glc(a1-4)Glc(a1-4)Glc
# Outline: as §1
# [19] = target: Glc(a1-6)Glc(a1-6)Glc
# Outline: as §1
# [20] = target: Glc(a1-6)Glc(a1-6)Glc(a1-6)Glc
# Outline: as §1
# [21] = target: Glc(b1-4)Glc
# Outline: as §1
# [22] = target: Glc(b1-6)Glc
# Outline: as §1
# [23] = target: GlcA(b1-3)Gal
# Outline: as §1
# [24] = target: GlcA(b1-3)GlcNAc
# Outline: as §1
# [25] = target: GlcA(b1-6)Gal
# Outline: as §1
# [26] = target: GlcNAc(a1-3)Gal(b1-4)GlcNAc
# Outline: as §1
# [27] = target: GlcNAc(a1-4)Gal(b1-3)GlcNAc
# Outline: as §1
# [28] = target: GlcNAc(a1-4)Gal(b1-4)GalNAc
# Outline: as §1
# [29] = target: GlcNAc(a1-4)Gal(b1-4)GlcNAc
# Outline: as §1
# [30] = target: GlcNAc(a1-4)Gal(b1-4)GlcNAc(b1-3)Gal(b1-4)Glc
# Outline: as §1
# [31] = target: GlcNAc(a1-4)Gal(b1-4)GlcNAc(b1-3)Gal(b1-4)GlcNAc
# Outline: as §1
# [32] = target: GlcNAc(a1-4)Gal(b1-4)GlcNAc(b1-3)Gal(b1-4)GlcNAc(b1-3)Gal(b1-4)GlcNAc
# Outline: as §1
# [33] = target: GlcNAc(a1-4)Gal(b1-4)GlcNAc(b1-3)Gal(b1-4)[Fuc(a1-3)]GlcNAc(b1-3)Gal(b1-4)[Fuc(a1-3)]GlcNAc
# Outline: as §1
# [34] = target: GlcNAc(a1-6)Gal(b1-4)GlcNAc
# Outline: as §1
# [35] = target: GlcNAc(b1-2)Gal(b1-3)GalNAc
# Outline: as §1
# [36] = target: GlcNAc(b1-2)Man(a1-3)[GlcNAc(b1-2)Man(a1-6)]Man(b1-4)GlcNAc(b1-4)GlcNAc
# Outline: as §1
# [37] = target: GlcNAc(b1-2)Man(a1-3)[GlcNAc(b1-2)Man(a1-6)]Man(b1-4)GlcNAc(b1-4)[Fuc(a1-6)]GlcNAc
# Outline: as §1
# [38] = target: GlcNAc(b1-2)Man(a1-3)[GlcNAc(b1-4)][GlcNAc(b1-2)Man(a1-6)]Man(b1-4)GlcNAc(b1-4)GlcNAc
# Outline: as §1
# [39] = target: GlcNAc(b1-2)[GlcNAc(b1-4)]Man(a1-3)[GlcNAc(b1-2)Man(a1-6)]Man(b1-4)GlcNAc(b1-4)GlcNAc
# Outline: as §1
# [40] = target: GlcNAc(b1-2)[GlcNAc(b1-4)]Man(a1-3)[GlcNAc(b1-4)][GlcNAc(b1-2)Man(a1-6)]Man(b1-4)GlcNAc(b1-4)GlcNAc
# Outline: as §1
# [41] = target: GlcNAc(b1-2)[GlcNAc(b1-4)]Man(a1-3)[GlcNAc(b1-4)][GlcNAc(b1-2)[GlcNAc(b1-6)]Man(a1-6)]Man(b1-4)GlcNAc(b1-4)GlcNAc
# Outline: as §1
# [42] = target: GlcNAc(b1-2)[GlcNAc(b1-6)]Man(a1-6)[GlcNAc(b1-2)Man(a1-3)]Man(b1-4)GlcNAc(b1-4)GlcNAc
# Outline: as §1
# [43] = target: GlcNAc(b1-2)[GlcNAc(b1-6)]Man(a1-6)[GlcNAc(b1-2)Man(a1-3)][GlcNAc(b1-4)]Man(b1-4)GlcNAc(b1-4)GlcNAc
# Outline: as §1
# [44] = target: GlcNAc(b1-3)Gal
# Outline: as §1
# [45] = target: GlcNAc(b1-3)Gal(b1-3)GalNAc
# Outline: as §1
# [46] = target: GlcNAc(b1-3)Gal(b1-4)Glc
# Outline: as §1
# [47] = target: GlcNAc(b1-3)Gal(b1-4)GlcNAc
# Outline: as §1
# [48] = target: GlcNAc(b1-3)Gal(b1-4)GlcNAc(b1-3)Gal(b1-4)GlcNAc
# Outline: as §1
# [49] = target: GlcNAc(b1-3)GalNAc
# Outline: as §1
# [50] = target: GlcNAc(b1-3)Man
# Outline: as §1
# [51] = target: GlcNAc(b1-3)[GlcNAc(b1-4)][GlcNAc(b1-6)]GlcNAc
# Outline: as §1
# [52] = target: GlcNAc(b1-3)[GlcNAc(b1-6)]Gal(b1-4)GlcNAc
# Outline: as §1
# [53] = target: GlcNAc(b1-3)[GlcNAc(b1-6)]GalNAc
# Outline: as §1
# [54] = target: GlcNAc(b1-4)Gal(b1-4)GlcNAc
# Outline: as §1
# [55] = target: GlcNAc(b1-4)GlcNAc
# Outline: as §1
# [56] = target: GlcNAc(b1-4)GlcNAc(b1-4)GlcNAc
# Outline: as §1
# [57] = target: GlcNAc(b1-4)GlcNAc(b1-4)GlcNAc(b1-4)GlcNAc(b1-4)GlcNAc
# Outline: as §1
# [58] = target: GlcNAc(b1-4)GlcNAc(b1-4)GlcNAc(b1-4)GlcNAc(b1-4)GlcNAc(b1-4)GlcNAc
# Outline: as §1
# [59] = target: GlcNAc(b1-4)[GlcNAc(b1-6)]GalNAc
# Outline: as §1
# [60] = target: GlcNAc(b1-6)Gal(b1-4)GlcNAc
# Outline: as §1
# [61] = target: GlcNAc(b1-6)GalNAc
# Outline: as §1
# [62] = target: GlcNAc3Prop(b1-4)GlcNAc
# Outline: as §1
# [63] = target: GlcNAc6S(b1-3)Gal(b1-4)GlcNAc
# Outline: as §1
# [64] = target: Kdn(a2-3)Gal(b1-3)GalNAc
# Outline: as §1
# [65] = target: Kdn(a2-3)Gal(b1-3)GlcNAc
# Outline: as §1
# [66] = target: Kdn(a2-3)Gal(b1-4)Glc
# Outline: as §1
# [67] = target: Kdn(a2-3)Gal(b1-4)GlcNAc
# Outline: as §1
# [68] = target: Kdn(a2-3)Gal(b1-4)[Fuc(a1-3)]GlcNAc
# Outline: as §1
# [69] = target: Kdn(a2-6)Gal(b1-4)GlcNAc
# Outline: as §1
# [70] = target: Man(a1-2)Man(a1-2)Man(a1-3)Man
# Outline: as §1
# [71] = target: Man(a1-2)Man(a1-2)Man(a1-6)[Man(a1-3)]Man
# Outline: as §1
# [72] = target: Man(a1-2)Man(a1-3)Man
# Outline: as §1
# [73] = target: Man(a1-2)Man(a1-3)[Man(a1-2)Man(a1-6)]Man
# Outline: as §1
# [74] = target: Man(a1-2)Man(a1-3)[Man(a1-2)Man(a1-6)]Man(a1-6)[Man(a1-2)Man(a1-2)Man(a1-3)]Man
# Outline: as §1
# [75] = target: Man(a1-2)Man(a1-3)[Man(a1-2)Man(a1-6)]Man(a1-6)[Man(a1-2)Man(a1-2)Man(a1-3)]Man(b1-4)GlcNAc(b1-4)GlcNAc
# Outline: as §1
binder,measurement,setting,value
B1,glycan array binding signal (z-score),[1],1.24
same,glycan array binding signal (z-score),[2],1.21
same,glycan array binding signal (z-score),[3],-0.334
same,glycan array binding signal (z-score),[4],-0.12
same,glycan array binding signal (z-score),[5],0.033
same,glycan array binding signal (z-score),[6],-0.071
same,glycan array binding signal (z-score),[7],0.994
same,glycan array binding signal (z-score),[8],0.343
same,glycan array binding signal (z-score),[9],-0.202
same,glycan array binding signal (z-score),[10],-1.32
same,glycan array binding signal (z-score),[11],-0.528
same,glycan array binding signal (z-score),[12],-0.932
same,glycan array binding signal (z-score),[13],-0.577
same,glycan array binding signal (z-score),[14],-0.484
same,glycan array binding signal (z-score),[15],0.034
same,glycan array binding signal (z-score),[16],0.453
same,glycan array binding signal (z-score),[17],-0.525
same,glycan array binding signal (z-score),[18],-0.492
same,glycan array binding signal (z-score),[19],-0.491
same,glycan array binding signal (z-score),[20],-0.345
same,glycan array binding signal (z-score),[21],-0.165
same,glycan array binding signal (z-score),[22],-0.577
same,glycan array binding signal (z-score),[23],-0.373
same,glycan array binding signal (z-score),[24],-0.524
same,glycan array binding signal (z-score),[25],-0.043
same,glycan array binding signal (z-score),[26],-0.188
same,glycan array binding signal (z-score),[27],-0.553
same,glycan array binding signal (z-score),[28],-1.4
same,glycan array binding signal (z-score),[29],-0.611
same,glycan array binding signal (z-score),[30],-0.409
same,glycan array binding signal (z-score),[31],5.27
same,glycan array binding signal (z-score),[32],-1.16
same,glycan array binding signal (z-score),[33],0.527
same,glycan array binding signal (z-score),[34],-0.022
same,glycan array binding signal (z-score),[35],-0.029
same,glycan array binding signal (z-score),[36],-0.868
same,glycan array binding signal (z-score),[37],0.537
same,glycan array binding signal (z-score),[38],0.29
same,glycan array binding signal (z-score),[39],-0.096
same,glycan array binding signal (z-score),[40],-0.333
same,glycan array binding signal (z-score),[41],-0.609
same,glycan array binding signal (z-score),[42],2.32
same,glycan array binding signal (z-score),[43],-0.628
same,glycan array binding signal (z-score),[44],-0.521
same,glycan array binding signal (z-score),[45],3.53
same,glycan array binding signal (z-score),[46],0.518
same,glycan array binding signal (z-score),[47],0.267
same,glycan array binding signal (z-score),[48],3.11
same,glycan array binding signal (z-score),[49],0.103
same,glycan array binding signal (z-score),[50],0.015
same,glycan array binding signal (z-score),[51],-0.198
same,glycan array binding signal (z-score),[52],-0.29
same,glycan array binding signal (z-score),[53],-0.541
same,glycan array binding signal (z-score),[54],-0.705
same,glycan array binding signal (z-score),[55],0.261
same,glycan array binding signal (z-score),[56],-0.397
same,glycan array binding signal (z-score),[57],0.009
same,glycan array binding signal (z-score),[58],-0.593
same,glycan array binding signal (z-score),[59],-0.215
same,glycan array binding signal (z-score),[60],0.15
same,glycan array binding signal (z-score),[61],-0.344
same,glycan array binding signal (z-score),[62],-0.712
same,glycan array binding signal (z-score),[63],0.039
same,glycan array binding signal (z-score),[64],-0.958
same,glycan array binding signal (z-score),[65],-0.719
same,glycan array binding signal (z-score),[66],-0.761
same,glycan array binding signal (z-score),[67],1.94
same,glycan array binding signal (z-score),[68],-0.051
same,glycan array binding signal (z-score),[69],0.171
same,glycan array binding signal (z-score),[70],-0.78
same,glycan array binding signal (z-score),[71],-0.448
same,glycan array binding signal (z-score),[72],-0.607
same,glycan array binding signal (z-score),[73],0.857
same,glycan array binding signal (z-score),[74],-0.821
same,glycan array binding signal (z-score),[75],0.181

# A run of entries taken from the entries so far:
binder,measurement,setting,value
B1,glycan array binding signal (z-score),[11],-0.528
same,glycan array binding signal (z-score),[12],-0.932
